No constants are given. Whether binding was seen depends on the method and setting. Binding seen in cells or lysates may run through a third protein. Some entries that bind do so weakly or less than the wild type.
B1: Myosin light chain phosphatase regulatory myosin target subunit MYPT1 (protein, UniProt Q9DBR7 1-1029)
chain: MKMADAKQKRNEQLKRWIGSETDLEPPVVKRQKTKVKFDDGAVFLAACSSGDTDEVLKLLHRGADINYANVDGLTALHQACIDDNVDMVKFLVENGANINQPDNEGWIPLHAAASCGYLDIAEFLIGQGAHVGAVNSEGDTPLDIAEEEAMEELLQNEVNRQGVDIEAARKEEERVMLRDARQWLNSGHISDVRHAKSGGTALHVAAAKGYTEVLKLLIQAGYDVNIKDYDGWTPLHAAAHWGKEEACRILVDNLCDMETVNKVGQTAFDVADEDILGYLEELQKKQTLLHSEKRDKKSPLIESTANMENNQPQKAFKNKETLIIEPEKNASRIESLEHEKADEEEEGKKDESSCSSEEDEEDDSESEAETDKTKPMASVSNAHTSSTQAAPAAVTAPTLSSNQGTPTSPVKKFPISTTKISPKEEERKDESPASWRLGLRKTGSYGALAEISASKEAQKEKDTAGVMRSASSPRLSSSLDNKEKEKDNKGTRLAYVTPTIPRRLASTSDIEEKENRESSSLRTSSSYTRRKWEDDLKKNSSINEGSTYHRSCSFGRRQDDLISCSVPSTTSTPTVTSAAGLQRSLPSSTSTAAKTPPGSSSAGTQSSTSNRLWAEDSTEKEKDSAPTAVTIPVAPTVVNAAAPSTTTLTTTTAGTVSEVRERRRSYLTPVRDEESESQRKARSRQARQSRRSTQGVTLTDLQEAEKTIGRSRSTRTREQENEEKEKEEKEKQDKEKQEEKKESEASREDEYKQKYSRTYDETYTRYRPVSTSSSSAPSSSSLSTLGSTLYASSQLNRPNSLVGITSAYSRGLAKENEREGEKKEEEKEGEDKSQPKSIRERRRPREKRRSTGVSFWTQDSDENEQERQSDTEDGSSKRETQTDSVSRYDSSSTSSSDRYDSLLGRSASYSYLEDRKPYSSRLEKDDSTDFKKLYEQILAENEKLKAQLHDTNMELTDLKLQLEKATQRQERFADRSQLEMEKRERRALERRISEMEEELKMLPDLKADNQRLKDENGALIRVISKLSK
B2: Vinculin (protein, UniProt Q64727 1-1066)
chain: MPVFHTRTIESILEPVAQQISHLVIMHEEGEVDGKAIPDLTAPVAAVQAAVSNLVRVGKETVQTTEDQILKRDMPPAFIKVENACTKLVQAAQMLQSDPYSVPARDYLIDGSRGILSGTSDLLLTFDEAEVRKIIRVCKGILEYLTVAEVVETMEDLVTYTKNLGPGMTKMAKMIDERQQELTHQEHRVMLVNSMNTVKELLPVLISAMKIFVTTKNSKNQGIEEALKNRNFTVEKMSAEINEIIRVLQLTSWDEDAWASKDTEAMKRALASIDSKLNQAKGWLRDPNASPGDAGEQAIRQILDEAGKVGELCAGKERREILGTCKMLGQMTDQVADLRARGQGASPVAMQKAQQVSQGLDVLTAKVENAARKLEAMTNSKQSIAKKIDAAQNWLADPNGGPEGEEQIRGALAEARKIAELCDDPKERDDILRSLGEIAALTSKLGDLRRQGKGDSPEARALAKQVATALQNLQTKTNRAVANSRPAKAAVHLEGKIEQAQRWIDNPTVDDRGVGQAAIRGLVAEGHRLANVMMGPYRQDLLAKCDRVDQLTAQLADLAARGEGESPQARALASQLQDSLKDLKAQMQEAMTQEVSDVFSDTTTPIKLLAVAATAPPDAPNREEVFDERAANFENHSGRLGATAEKAAAVGTANKSTVEGIQASVKTARELTPQVISAARILLRNPGNQAAYEHFETMKNQWIDNVEKMTGLVDEAIDTKSLLDASEEAIKKDLDKCKVAMANIQPQMLVAGATSIARRANRILLVAKREVENSEDPKFREAVKAASDELSKTISPMVMDAKAVAGNISDPGLQKSFLDSGYRILGAVAKVREAFQPQEPDFPPPPPDLEQLRLTDELAPPKPPLPEGEVPPPRPPPPEEKDEEFPEQKAGEVINQPMMMAARQLHDEARKWSSKGNDIIAAAKRMALLMAEMSRLVRGGSGTKRALIQCAKDIAKASDEVTRLAKEVAKQCTDKRIRTNLLQVCERIPTISTQLKILSTVKATMLGRTNISDEESEQATEMLVHNAQNLMQSVKETVREAEAASIKIRTDAGFTLRWVRKTPWYQ

Protein sequences, listed by entry. Tags and fused reporters are not part of them.
UniProt P83741: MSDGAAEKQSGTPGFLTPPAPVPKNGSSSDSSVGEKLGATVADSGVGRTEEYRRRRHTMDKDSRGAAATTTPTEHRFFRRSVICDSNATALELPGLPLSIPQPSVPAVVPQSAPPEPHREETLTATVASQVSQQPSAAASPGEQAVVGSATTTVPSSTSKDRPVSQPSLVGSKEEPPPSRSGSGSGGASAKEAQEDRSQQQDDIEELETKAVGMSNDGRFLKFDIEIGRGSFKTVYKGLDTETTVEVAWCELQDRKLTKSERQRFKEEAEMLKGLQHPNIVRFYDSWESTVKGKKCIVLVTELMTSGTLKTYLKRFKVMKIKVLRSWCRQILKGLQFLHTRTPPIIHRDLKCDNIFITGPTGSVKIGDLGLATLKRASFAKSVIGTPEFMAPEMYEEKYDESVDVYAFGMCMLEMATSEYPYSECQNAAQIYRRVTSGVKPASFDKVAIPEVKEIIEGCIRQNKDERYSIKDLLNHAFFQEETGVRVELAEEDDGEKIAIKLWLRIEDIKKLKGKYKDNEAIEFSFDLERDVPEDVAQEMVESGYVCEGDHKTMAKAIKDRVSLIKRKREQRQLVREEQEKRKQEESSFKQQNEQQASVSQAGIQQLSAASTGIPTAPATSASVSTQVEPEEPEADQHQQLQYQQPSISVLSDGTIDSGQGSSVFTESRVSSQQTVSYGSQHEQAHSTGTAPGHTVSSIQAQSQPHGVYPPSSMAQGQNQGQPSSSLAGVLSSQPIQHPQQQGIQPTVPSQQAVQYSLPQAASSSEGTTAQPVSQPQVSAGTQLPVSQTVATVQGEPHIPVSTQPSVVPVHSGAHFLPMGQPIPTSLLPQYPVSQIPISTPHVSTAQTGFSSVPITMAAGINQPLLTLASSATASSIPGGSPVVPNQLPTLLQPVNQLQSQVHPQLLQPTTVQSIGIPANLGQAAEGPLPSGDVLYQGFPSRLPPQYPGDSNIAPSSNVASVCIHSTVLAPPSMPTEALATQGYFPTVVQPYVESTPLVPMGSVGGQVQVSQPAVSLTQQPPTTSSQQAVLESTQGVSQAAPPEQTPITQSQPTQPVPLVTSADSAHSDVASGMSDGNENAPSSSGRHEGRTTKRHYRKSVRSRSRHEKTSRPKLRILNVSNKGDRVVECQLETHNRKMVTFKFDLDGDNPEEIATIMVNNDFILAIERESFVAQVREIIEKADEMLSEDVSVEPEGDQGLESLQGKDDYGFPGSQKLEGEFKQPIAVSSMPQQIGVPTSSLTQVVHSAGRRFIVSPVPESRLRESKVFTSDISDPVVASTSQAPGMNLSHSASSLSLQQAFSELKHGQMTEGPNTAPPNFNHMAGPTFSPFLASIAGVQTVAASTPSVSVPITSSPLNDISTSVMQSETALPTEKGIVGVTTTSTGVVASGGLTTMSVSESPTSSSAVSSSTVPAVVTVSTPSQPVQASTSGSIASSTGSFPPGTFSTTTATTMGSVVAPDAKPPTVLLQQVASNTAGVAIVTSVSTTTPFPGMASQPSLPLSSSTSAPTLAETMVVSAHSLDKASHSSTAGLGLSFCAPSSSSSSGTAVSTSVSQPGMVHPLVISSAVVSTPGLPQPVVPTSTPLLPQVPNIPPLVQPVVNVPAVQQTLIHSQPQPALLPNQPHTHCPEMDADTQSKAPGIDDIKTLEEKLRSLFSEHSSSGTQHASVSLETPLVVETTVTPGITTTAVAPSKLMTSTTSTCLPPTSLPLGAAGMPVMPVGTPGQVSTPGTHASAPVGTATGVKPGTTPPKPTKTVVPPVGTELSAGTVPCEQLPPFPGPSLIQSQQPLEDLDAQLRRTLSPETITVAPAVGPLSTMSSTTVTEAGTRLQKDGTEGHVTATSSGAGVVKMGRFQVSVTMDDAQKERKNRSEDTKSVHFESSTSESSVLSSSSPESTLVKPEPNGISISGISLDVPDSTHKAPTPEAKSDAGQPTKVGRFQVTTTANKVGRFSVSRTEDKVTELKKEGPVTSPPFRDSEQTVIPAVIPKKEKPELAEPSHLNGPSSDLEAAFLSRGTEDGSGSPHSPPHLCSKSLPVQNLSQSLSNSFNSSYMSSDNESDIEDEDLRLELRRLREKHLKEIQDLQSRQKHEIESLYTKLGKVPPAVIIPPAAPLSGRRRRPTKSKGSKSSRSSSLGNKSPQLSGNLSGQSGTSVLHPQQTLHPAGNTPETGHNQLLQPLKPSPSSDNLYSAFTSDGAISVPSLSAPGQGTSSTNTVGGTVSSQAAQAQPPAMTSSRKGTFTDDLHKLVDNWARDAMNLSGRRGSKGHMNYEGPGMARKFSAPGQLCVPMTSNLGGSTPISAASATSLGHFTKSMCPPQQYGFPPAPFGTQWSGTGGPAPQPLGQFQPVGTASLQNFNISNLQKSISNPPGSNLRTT
UniProt Q61879: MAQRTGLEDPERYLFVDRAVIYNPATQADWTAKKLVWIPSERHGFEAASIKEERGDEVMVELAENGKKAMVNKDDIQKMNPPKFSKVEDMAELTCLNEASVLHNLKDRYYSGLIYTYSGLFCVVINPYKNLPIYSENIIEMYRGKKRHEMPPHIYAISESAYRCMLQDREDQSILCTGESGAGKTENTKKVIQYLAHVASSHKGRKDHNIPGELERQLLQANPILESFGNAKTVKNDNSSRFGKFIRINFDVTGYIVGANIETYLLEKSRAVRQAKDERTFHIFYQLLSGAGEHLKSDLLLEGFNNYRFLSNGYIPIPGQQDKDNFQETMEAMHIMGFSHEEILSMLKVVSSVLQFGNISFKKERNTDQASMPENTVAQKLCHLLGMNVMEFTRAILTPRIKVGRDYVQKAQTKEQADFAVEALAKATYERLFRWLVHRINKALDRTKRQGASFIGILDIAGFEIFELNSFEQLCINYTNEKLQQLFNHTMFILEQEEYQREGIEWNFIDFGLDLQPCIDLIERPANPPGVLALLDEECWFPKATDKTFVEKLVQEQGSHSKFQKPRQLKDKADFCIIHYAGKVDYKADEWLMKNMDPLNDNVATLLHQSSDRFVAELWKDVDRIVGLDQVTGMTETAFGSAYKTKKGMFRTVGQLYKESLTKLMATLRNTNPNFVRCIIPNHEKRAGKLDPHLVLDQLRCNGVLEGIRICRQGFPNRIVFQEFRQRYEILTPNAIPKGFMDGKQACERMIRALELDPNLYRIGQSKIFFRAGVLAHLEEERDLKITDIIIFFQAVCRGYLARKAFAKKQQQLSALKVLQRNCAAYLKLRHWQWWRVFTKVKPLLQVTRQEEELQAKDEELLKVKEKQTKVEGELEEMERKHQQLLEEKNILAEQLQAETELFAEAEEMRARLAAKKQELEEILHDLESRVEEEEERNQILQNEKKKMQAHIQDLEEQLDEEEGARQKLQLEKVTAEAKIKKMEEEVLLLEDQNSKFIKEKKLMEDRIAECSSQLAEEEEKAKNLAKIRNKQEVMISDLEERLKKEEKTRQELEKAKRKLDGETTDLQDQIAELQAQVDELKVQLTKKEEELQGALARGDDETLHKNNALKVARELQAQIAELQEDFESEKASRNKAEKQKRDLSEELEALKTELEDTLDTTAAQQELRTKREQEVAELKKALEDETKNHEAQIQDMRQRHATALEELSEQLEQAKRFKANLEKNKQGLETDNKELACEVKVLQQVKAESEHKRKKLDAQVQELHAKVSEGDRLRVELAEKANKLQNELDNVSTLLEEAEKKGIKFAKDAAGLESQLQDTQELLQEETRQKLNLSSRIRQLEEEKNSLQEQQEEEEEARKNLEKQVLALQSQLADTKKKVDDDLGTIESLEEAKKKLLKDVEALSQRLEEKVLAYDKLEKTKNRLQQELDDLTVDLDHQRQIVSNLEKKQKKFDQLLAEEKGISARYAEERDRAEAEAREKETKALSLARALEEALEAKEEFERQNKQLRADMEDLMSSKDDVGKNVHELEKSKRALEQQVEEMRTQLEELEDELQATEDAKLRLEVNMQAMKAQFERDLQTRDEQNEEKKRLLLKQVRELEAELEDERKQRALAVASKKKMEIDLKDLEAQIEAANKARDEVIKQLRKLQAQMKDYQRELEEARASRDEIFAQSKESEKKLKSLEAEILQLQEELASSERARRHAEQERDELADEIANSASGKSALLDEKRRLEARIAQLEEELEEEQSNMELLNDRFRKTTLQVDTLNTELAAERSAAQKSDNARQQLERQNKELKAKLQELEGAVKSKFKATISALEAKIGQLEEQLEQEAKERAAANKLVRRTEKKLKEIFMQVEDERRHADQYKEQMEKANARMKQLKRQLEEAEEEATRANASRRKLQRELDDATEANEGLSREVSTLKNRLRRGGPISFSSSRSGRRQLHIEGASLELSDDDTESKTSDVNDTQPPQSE

Molecular target: With-no-lysine (WNK)1 kinase (mouse (endogenous in mouse podocytes)) (UniProt P83741)
Assay: co-IP

| Molecule | binding |
| --- | --- |
| Non-muscle myosin IIB (from UniProt Q61879 1-1976) | binds |
| B1 | binds |
| B2 | binds |
